Patent publication US9018176B2, “Inducers of hematopoiesis and fetal globin production for treatment of cytopenias and hemoglobin disorders” (priority 2010, dated 2015)

How the values were obtained:
Assay type in all cases: cell-based
[1] = tested on: γ-globin gene promoter; experiment: Dual luciferase reporter assay (μLCRβprRlucAγprFluc cassette) in GM979 cells; conditions: Ambroxol at 1 μM, Desloratadine at 1 μM, Resveratrol at 10 μM, Benserazide at 0.03 μM (or a range of 30 nM-5 μM), MS-275 at 5 μM, NSC-95397 at 1 μM; versus sodium Butyrate at 2000 μM
Source text: Cell-based screen for γ-globin inducing compounds in GM979 cells (Skarpidi, et al. Blood 2000; 96:321-326). Mini-gene construct integrated into GM979 cell genome. The readout is Firefly/Renilla luciferase ratio, and is designed to identify only strong inducers of the γ-globin promoter, and specificity for the γ- vs. the […]γ-globin gene. This second assay confirmed 12/15 candidates.
This assay is […], and consists of a dual-luciferase reporter construct containing the LCR and the […] luciferase and the Aγ-globin promoter linked to firefly luciferase (μLCRβprRlucAγprFluc cassette), stably-transfected into GM979 cells. The orientation of the promoters and μLCR allowed detection only of strong, specific inducers of the γ-globin gene promoter. This assay is also been predictive of in vivo HbF-inducing activity.
The γ-globin-specificity of hits was determined in a secondary assay employing a stably-transfected dual-luciferase reporter construct containing the LCR and the β-globin promoter linked to renilla luciferase and the Aγ-globin promoter linked to firefly luciferase (μLCRβprRlucAγprFluc cassette) (FIG. 2B).

[2] = tested on: γ-globin mRNA; experiment: γ-globin mRNA in cultured primary human erythroid progenitors (BFU-e), real-time PCR; conditions: primary erythroid progenitors in vitro
Description: Erythroid progenitors were cultured from cord blood CD34+ cells. […] Each compound was tested in three different cultures. […] On day 14, RNA was extracted from cultured erythroid cells, and relative quantification PCR was performed. Briefly, cDNA was generated from equal amounts of total RNA extracted using The PerfectPure RNA Purification Kit (5 Prime Inc Gaithersburg, Md.). Real-time PCR was performed using an ABI 7500 Real-Time PCR system (Applied Biosystems, Foster City, Calif.). Levels of globin mRNA were calculated by the ΔΔCt method. […] GAPDH levels were used for standardization. Western blotting Nuclear extract of K562 cells and 14-day-old BFU-e were analyzed by electrophoresis using 5-24% gradient SDS-polyacrylamide mini-gels (BIORAD Laboratories. Hercules Calif.). Proteins in the gels were transferred to Immobilon-P membranes. Blots were then incubated with BCL11A polyclonal (Novus Biologicals, Littleton Co) or mouse monoclonal (Santa Cruz Biotechnology, Santa Cruz Calif.) antibodies, after washing blots were incubated with anti-rabbit IgG-horseradish peroxidase secondary antibody (ECL, Little Chalfont Buckinghamshire UK). BCL11A bands were detected on the X-ray film using Western Lightning Reagents (Perking Elmer Inc, Waltham, Mass.).

[3] = tested on: γ-globin mRNA; experiment: γ-globin mRNA gene expression in K562 cells; conditions: FIG. 5, K562 cells; tested Desloratadine 10 μM-100 μM, Resveratrol 5 μM-30 μM, NSC 1 μM-50 μM

Clc1ccc2c(c1)CCc1cccnc1C2=C1CCNCC1 [Desloratadine, 8-Chloro-6,11-dihydro-11-(4-piperidinylidene)-5H-benzo[5,6]cyclohepta[1,2-b]pyridine]
activity compared with sodium Butyrate [1]: significantly more active | lowest concentration with fetal hemoglobin (HbF) inducing activity ([2]; lower end of the range 5 nM to 3 μM): 5 nM | upper end of the concentration range with fetal hemoglobin (HbF) inducing activity ([2]; range 5 nM to 3 μM): 3 µM | concentration giving the most γ-globin mRNA expression [3]: 50 µM
